Values of other authors, collected in publication PMC6152407, “Molecular Mechanisms Underlying Inhibitory Binding of Alkylimidazolium Ionic Liquids to Laccase” (Molecules : A Journal of Synthetic Chemistry and Natural …, 2017).

Tested on: tyrosinase
Design: method as in PMID 19112180
Details: 2% IL; cited from earlier work

SMILES | right shift of optimal pH of tyrosinase
CCCCn1cc[n+](C)c1.F[B-](F)(F)F [[Bmim]BF4] | 0.5 unit
CCCCn1cc[n+](C)c1.COS(=O)(=O)[O-] [[Bmim]MeSO4] | 0.5 unit
CCCCn1cc[n+](C)c1.F[P-](F)(F)(F)(F)F [[Bmim]PF6] | not being affected
